Values from PubChem BioAssay AID1224827 (NIAID, 2016)
Test: 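Confirm genes whose knock-down changes LPS-driven TNF promoter activity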 (follow-up of hits). System: RAW264.7 G9 mouse macrophage reporter clone. Reagent: single siRNA against mouse genes, 100 nM siRNA. Timing: siRNA for 2 days, then LPS about 16 h. Challenge: bacterial lipopolysaccharide (LPS), 10 ng/ml, cells fixed after overnight (about 16 h) stimulation. Measurement: 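Imaged nuclear TNF reporter intensity, background removed, scaled per plate and to non-targeting control wells, as z-scores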. Direction: TNF reporter z-score, mean: higher = stronger Tnf promoter reporter signal; gene median z, three same-vendor siRNAs: higher = stronger Tnf reporter signal for the gene. Call rule: 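Active siRNA: replicate-mean z-score of 2 or more, or -2 or less; no calls for control wells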.
Here is an unselected part of about 3,800 reagents tested. About 2,200 of all reagents (57%) count as active. 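Active means a strong reporter change in either direction; calls are per siRNA, not per gene; qiagen siRNAs gave weaker effects.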 A number with no mark means an inactive call. The numbers tell different reagents against one gene apart. Further read-outs or replicates are left out here.

{"target gene": "Bmp3 (GeneID 110075)", "reagent": 1, "TNF reporter z-score, mean": "-3.27 (active)", "gene median z, three same-vendor siRNAs": -4.3}
{"target gene": "Bmp3 (GeneID 110075)", "reagent": 2, "TNF reporter z-score, mean": "-4.3 (active)", "gene median z, three same-vendor siRNAs": -4.3}
{"target gene": "Bmp3 (GeneID 110075)", "reagent": 3, "TNF reporter z-score, mean": "-5.47 (active)", "gene median z, three same-vendor siRNAs": -4.3}
{"target gene": "Bmp3 (GeneID 110075)", "reagent": 4, "TNF reporter z-score, mean": "3.32 (active)", "gene median z, three same-vendor siRNAs": -1.23}
{"target gene": "Bmp3 (GeneID 110075)", "reagent": 5, "TNF reporter z-score, mean": -1.23, "gene median z, three same-vendor siRNAs": -1.23}
{"target gene": "Bmp3 (GeneID 110075)", "reagent": 6, "TNF reporter z-score, mean": "-2.46 (active)", "gene median z, three same-vendor siRNAs": -1.23}
{"target gene": "Ccr2 (GeneID 12772)", "reagent": 1, "TNF reporter z-score, mean": "5.52 (active)", "gene median z, three same-vendor siRNAs": 3.09}
{"target gene": "Ccr2 (GeneID 12772)", "reagent": 2, "TNF reporter z-score, mean": "2.9 (active)", "gene median z, three same-vendor siRNAs": 3.09}
{"target gene": "Ccr2 (GeneID 12772)", "reagent": 3, "TNF reporter z-score, mean": 1.18, "gene median z, three same-vendor siRNAs": 3.09}
{"target gene": "Ccr2 (GeneID 12772)", "reagent": 4, "TNF reporter z-score, mean": 0.311, "gene median z, three same-vendor siRNAs": -0.168}
{"target gene": "Ccr2 (GeneID 12772)", "reagent": 5, "TNF reporter z-score, mean": -0.157, "gene median z, three same-vendor siRNAs": -0.168}
{"target gene": "Ccr2 (GeneID 12772)", "reagent": 6, "TNF reporter z-score, mean": "-2.12 (active)", "gene median z, three same-vendor siRNAs": -0.168}
{"target gene": "Neu1 (GeneID 18010)", "reagent": 1, "TNF reporter z-score, mean": "-3.09 (active)", "gene median z, three same-vendor siRNAs": -3.73}
{"target gene": "Neu1 (GeneID 18010)", "reagent": 2, "TNF reporter z-score, mean": "-4.19 (active)", "gene median z, three same-vendor siRNAs": -3.73}
{"target gene": "Neu1 (GeneID 18010)", "reagent": 3, "TNF reporter z-score, mean": "-4.65 (active)", "gene median z, three same-vendor siRNAs": -3.73}
{"target gene": "Neu1 (GeneID 18010)", "reagent": 4, "TNF reporter z-score, mean": "2.85 (active)", "gene median z, three same-vendor siRNAs": 1.39}
{"target gene": "Neu1 (GeneID 18010)", "reagent": 5, "TNF reporter z-score, mean": 1.09, "gene median z, three same-vendor siRNAs": 1.39}
{"target gene": "Neu1 (GeneID 18010)", "reagent": 6, "TNF reporter z-score, mean": 0.158, "gene median z, three same-vendor siRNAs": 1.39}
{"target gene": "Or4c112 (GeneID 258903)", "reagent": 1, "TNF reporter z-score, mean": "-2.1 (active)", "gene median z, three same-vendor siRNAs": -3.14}
{"target gene": "Or4c112 (GeneID 258903)", "reagent": 2, "TNF reporter z-score, mean": "-3.32 (active)", "gene median z, three same-vendor siRNAs": -3.14}
{"target gene": "Or4c112 (GeneID 258903)", "reagent": 3, "TNF reporter z-score, mean": "-3.99 (active)", "gene median z, three same-vendor siRNAs": -3.14}
{"target gene": "Or4c112 (GeneID 258903)", "reagent": 4, "TNF reporter z-score, mean": 0.419, "gene median z, three same-vendor siRNAs": -0.89}
{"target gene": "Or4c112 (GeneID 258903)", "reagent": 5, "TNF reporter z-score, mean": -0.187, "gene median z, three same-vendor siRNAs": -0.89}
{"target gene": "Or4c112 (GeneID 258903)", "reagent": 6, "TNF reporter z-score, mean": "-3.28 (active)", "gene median z, three same-vendor siRNAs": -0.89}

The list goes on, starting with the last 4 of the part before.
{"target gene": "Or4c112 (GeneID 258903)", "reagent": 3, "TNF reporter z-score, mean": "-3.99 (active)", "gene median z, three same-vendor siRNAs": -3.14}
{"target gene": "Or4c112 (GeneID 258903)", "reagent": 4, "TNF reporter z-score, mean": 0.419, "gene median z, three same-vendor siRNAs": -0.89}
{"target gene": "Or4c112 (GeneID 258903)", "reagent": 5, "TNF reporter z-score, mean": -0.187, "gene median z, three same-vendor siRNAs": -0.89}
{"target gene": "Or4c112 (GeneID 258903)", "reagent": 6, "TNF reporter z-score, mean": "-3.28 (active)", "gene median z, three same-vendor siRNAs": -0.89}
{"target gene": "Tns4 (GeneID 217169)", "reagent": 1, "TNF reporter z-score, mean": 0.0802, "gene median z, three same-vendor siRNAs": -1.87}
{"target gene": "Tns4 (GeneID 217169)", "reagent": 2, "TNF reporter z-score, mean": -1.87, "gene median z, three same-vendor siRNAs": -1.87}
{"target gene": "Tns4 (GeneID 217169)", "reagent": 3, "TNF reporter z-score, mean": "-3.94 (active)", "gene median z, three same-vendor siRNAs": -1.87}
{"target gene": "Tns4 (GeneID 217169)", "reagent": 4, "TNF reporter z-score, mean": "4.6 (active)", "gene median z, three same-vendor siRNAs": 1.81}
{"target gene": "Tns4 (GeneID 217169)", "reagent": 5, "TNF reporter z-score, mean": "2.89 (active)", "gene median z, three same-vendor siRNAs": 1.81}
{"target gene": "Tns4 (GeneID 217169)", "reagent": 6, "TNF reporter z-score, mean": 1.01, "gene median z, three same-vendor siRNAs": 1.81}
{"target gene": "Apobec2 (GeneID 11811)", "reagent": 1, "TNF reporter z-score, mean": "3.25 (active)", "gene median z, three same-vendor siRNAs": -3.01}
{"target gene": "Apobec2 (GeneID 11811)", "reagent": 2, "TNF reporter z-score, mean": "-3.01 (active)", "gene median z, three same-vendor siRNAs": -3.01}
{"target gene": "Apobec2 (GeneID 11811)", "reagent": 3, "TNF reporter z-score, mean": "-5.9 (active)", "gene median z, three same-vendor siRNAs": -3.01}
{"target gene": "Apobec2 (GeneID 11811)", "reagent": 4, "TNF reporter z-score, mean": "5.12 (active)", "gene median z, three same-vendor siRNAs": 1.38}
{"target gene": "Apobec2 (GeneID 11811)", "reagent": 5, "TNF reporter z-score, mean": 1.38, "gene median z, three same-vendor siRNAs": 1.38}
{"target gene": "Apobec2 (GeneID 11811)", "reagent": 6, "TNF reporter z-score, mean": -1.71, "gene median z, three same-vendor siRNAs": 1.38}
